No constants are given. Whether binding was seen depends on the method and setting. In cells and extracts the contact can be indirect. Some entries that bind do so weakly or less than the wild type. Sequences can lack the tags named with a protein.
How the values were obtained:
[1] = biological target: T1, Mre11 (Saccharomyces cerevisiae) (UniProt P32829); test: anti-FLAG co-IP, LC-MS/MS; pair by Table 2
T1 sequence (looked up): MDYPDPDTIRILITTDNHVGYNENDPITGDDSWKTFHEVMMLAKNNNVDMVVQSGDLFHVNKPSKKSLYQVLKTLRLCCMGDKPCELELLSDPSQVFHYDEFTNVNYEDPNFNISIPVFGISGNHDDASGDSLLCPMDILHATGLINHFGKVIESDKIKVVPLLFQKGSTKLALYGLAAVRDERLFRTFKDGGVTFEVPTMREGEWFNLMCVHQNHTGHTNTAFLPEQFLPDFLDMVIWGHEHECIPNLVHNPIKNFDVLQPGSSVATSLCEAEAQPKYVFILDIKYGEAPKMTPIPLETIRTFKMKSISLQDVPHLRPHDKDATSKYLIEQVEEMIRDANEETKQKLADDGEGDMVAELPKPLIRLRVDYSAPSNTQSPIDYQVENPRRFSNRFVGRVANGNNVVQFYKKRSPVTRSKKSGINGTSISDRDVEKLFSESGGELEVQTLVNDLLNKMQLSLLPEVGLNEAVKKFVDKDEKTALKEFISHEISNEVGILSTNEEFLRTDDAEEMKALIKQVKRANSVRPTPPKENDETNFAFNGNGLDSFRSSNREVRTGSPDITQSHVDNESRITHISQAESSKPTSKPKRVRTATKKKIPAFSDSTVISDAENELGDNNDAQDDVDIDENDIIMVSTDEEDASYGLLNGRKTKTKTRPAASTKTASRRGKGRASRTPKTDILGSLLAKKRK

[2] = biological target: T2, Xrs2 (Saccharomyces cerevisiae) (UniProt P33301); test: anti-FLAG co-IP, LC-MS/MS; pair by Table 2
T2 sequence (looked up): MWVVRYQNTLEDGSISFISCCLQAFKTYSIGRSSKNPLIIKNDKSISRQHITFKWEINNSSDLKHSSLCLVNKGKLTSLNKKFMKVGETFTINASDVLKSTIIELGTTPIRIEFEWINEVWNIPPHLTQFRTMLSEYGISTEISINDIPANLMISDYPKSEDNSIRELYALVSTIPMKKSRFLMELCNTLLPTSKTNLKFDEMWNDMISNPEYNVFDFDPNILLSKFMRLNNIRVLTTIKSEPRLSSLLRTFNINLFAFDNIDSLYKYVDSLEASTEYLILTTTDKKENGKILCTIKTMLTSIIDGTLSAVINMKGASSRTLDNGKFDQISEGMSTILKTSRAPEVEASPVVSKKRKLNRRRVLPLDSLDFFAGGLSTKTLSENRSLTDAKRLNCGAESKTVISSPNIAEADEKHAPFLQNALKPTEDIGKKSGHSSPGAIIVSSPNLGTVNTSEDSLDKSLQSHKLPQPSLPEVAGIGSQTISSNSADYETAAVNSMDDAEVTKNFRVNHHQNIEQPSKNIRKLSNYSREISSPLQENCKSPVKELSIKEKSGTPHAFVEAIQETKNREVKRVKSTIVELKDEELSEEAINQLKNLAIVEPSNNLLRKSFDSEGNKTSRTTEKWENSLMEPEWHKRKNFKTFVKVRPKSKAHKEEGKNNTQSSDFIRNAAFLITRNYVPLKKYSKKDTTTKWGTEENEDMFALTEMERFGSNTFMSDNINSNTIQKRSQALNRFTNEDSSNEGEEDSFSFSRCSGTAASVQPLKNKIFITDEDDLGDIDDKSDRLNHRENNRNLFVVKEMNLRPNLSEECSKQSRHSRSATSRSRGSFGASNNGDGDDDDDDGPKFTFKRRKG

[3] = biological target: T1, Mre11 (Saccharomyces cerevisiae); test: anti-FLAG co-IP, LC-MS/MS
[4] = biological target: T2, Xrs2 (Saccharomyces cerevisiae); test: anti-FLAG co-IP, LC-MS/MS
[5] = biological target: T3, Dun1 (Saccharomyces cerevisiae) (UniProt P39009); test: anti-FLAG co-IP, LC-MS/MS
T3 sequence (looked up): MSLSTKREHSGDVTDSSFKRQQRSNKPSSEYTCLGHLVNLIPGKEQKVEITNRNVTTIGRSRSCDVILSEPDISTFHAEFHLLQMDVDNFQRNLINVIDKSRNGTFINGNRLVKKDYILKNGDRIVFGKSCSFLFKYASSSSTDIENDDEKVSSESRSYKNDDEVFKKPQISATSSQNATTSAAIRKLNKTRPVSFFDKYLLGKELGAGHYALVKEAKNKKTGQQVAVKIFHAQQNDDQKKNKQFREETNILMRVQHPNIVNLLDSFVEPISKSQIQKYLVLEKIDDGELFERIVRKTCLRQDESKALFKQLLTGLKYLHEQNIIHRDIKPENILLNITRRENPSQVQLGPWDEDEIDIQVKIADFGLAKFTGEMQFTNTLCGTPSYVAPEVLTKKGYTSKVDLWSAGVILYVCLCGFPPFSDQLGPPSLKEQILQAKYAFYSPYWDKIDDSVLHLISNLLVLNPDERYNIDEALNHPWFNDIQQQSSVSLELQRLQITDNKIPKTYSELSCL

[6] = biological target: T3, Dun1 (Saccharomyces cerevisiae); test: anti-FLAG co-IP, LC-MS/MS; Dun1 was the prey by Table 2
[7] = biological target: T4, Hog1 (Saccharomyces cerevisiae) (UniProt P32485); test: anti-FLAG co-IP, LC-MS/MS
T4 sequence (looked up): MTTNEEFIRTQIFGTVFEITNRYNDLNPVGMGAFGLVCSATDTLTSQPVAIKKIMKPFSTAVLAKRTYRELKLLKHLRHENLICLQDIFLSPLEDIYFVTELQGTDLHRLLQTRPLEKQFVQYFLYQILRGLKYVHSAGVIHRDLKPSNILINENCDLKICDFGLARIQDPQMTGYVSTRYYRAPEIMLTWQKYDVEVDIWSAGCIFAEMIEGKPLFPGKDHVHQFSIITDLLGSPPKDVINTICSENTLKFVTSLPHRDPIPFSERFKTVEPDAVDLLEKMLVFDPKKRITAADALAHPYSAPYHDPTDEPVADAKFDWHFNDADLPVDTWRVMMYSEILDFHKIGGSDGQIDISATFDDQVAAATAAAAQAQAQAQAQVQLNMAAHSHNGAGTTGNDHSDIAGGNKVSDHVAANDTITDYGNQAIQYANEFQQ

Measured: binding

B1: Rad50 (protein, Saccharomyces cerevisiae, UniProt P12753 1-1312, looked up)
chain: MSAIYKLSIQGIRSFDSNDRETIEFGKPLTLIVGMNGSGKTTIIECLKYATTGDLPPNSKGGVFIHDPKITGEKDIRAQVKLAFTSANGLNMIVTRNIQLLMKKTTTTFKTLEGQLVAINNSGDRSTLSTRSLELDAQVPLYLGVPKAILEYVIFCHQEDSLWPLSEPSNLKKKFDEIFQAMKFTKALDNLKSIKKDMSVDIKLLKQSVEHLKLDKDRSKAMKLNIHQLQTKIDQYNEEVSEIESQLNEITEKSDKLFKSNQDFQKILSKVENLKNTKLSISDQVKRLSNSIDILDLSKPDLQNLLANFSKVLMDKNNQLRDLETDISSLKDRQSSLQSLSNSLIRRQGELEAGKETYEKNRNHLSSLKEAFQHKFQGLSNIENSDMAQVNHEMSQFKAFISQDLTDTIDQFAKDIQLKETNLSDLIKSITVDSQNLEYNKKDRSKLIHDSEELAEKLKSFKSLSTQDSLNHELENLKTYKEKLQSWESENIIPKLNQKIEEKNNEMIILENQIEKFQDRIMKTNQQADLYAKLGLIKKSINTKLDELQKITEKLQNDSRIRQVFPLTQEFQRADLEMDFQKLFINMQKNIAINNKKMHELDRRYTNALYNLNTIEKDLQDNQKSKEKVIQLLSENLPEDCTIDEYNDVLEETELSYKTALENLKMHQTTLEFNRKALEIAERDSCCYLCSRKFENESFKSKLLQELKTKTDANFEKTLKDTVQNEKEYLHSLRLLEKHIITLNSINEKIDNSQKCLEKAKEETKTSKSKLDELEVDSTKLKDEKELAESEIRPLIEKFTYLEKELKDLENSSKTISEELSIYNTSEDGIQTVDELRDQQRKMNDSLRELRKTISDLQMEKDEKVRENSRMINLIKEKELTVSEIESSLTQKQNIDDSIRSKRENINDIDSRVKELEARIISLKNKKDEAQSVLDKVKNERDIQVRNKQKTVADINRLIDRFQTIYNEVVDFEAKGFDELQTTIKELELNKAQMLELKEQLDLKSNEVNEEKRKLADSNNEEKNLKQNLELIELKSQLQHIESEISRLDVQNAEAERDKYQEESLRLRTRFEKLSSENAGKLGEMKQLQNQIDSLTHQLRTDYKDIEKNYHKEWVELQTRSFVTDDIDVYSKALDSAIMKYHGLKMQDINRIIDELWKRTYSGTDIDTIKIRSDEVSSTVKGKSYNYRVVMYKQDVELDMRGRCSAGQKVLASIIIRLALSETFGANCGVIALDEPTTNLDEENIESLAKSLHNIINMRRHQKNFQLIVITHDEKFLGHMNAAAFTDHFFKVKRDDRQKSQIEWVDINRVTY
binds: [1] | [2] | [3] | [4] | [5] | [6]

B2: Rck2 (protein, Saccharomyces cerevisiae, UniProt P38623 1-610, looked up)
chain: MLKIKALFSKKKPDQADLSQESKKPFKGKTRSSGTNNKDVSQITSSPKKSFQDKNIVQYPSVVADDHHMKSLTDELVTTIDSDSSPSDNITTENVETVTSVPAIDVHESSEGQLSSDPLISDESLSEQSEIISDIQDDSTDDDNMEDEIPEKSFLEQKELIGYKLINKIGEGAFSKVFRAIPAKNSSNEFLTKNYKAVAIKVIKKADLSSINGDHRKKDKGKDSTKTSSRDQVLKEVALHKTVSAGCSQIVAFIDFQETDSYYYIIQELLTGGEIFGEIVRLTYFSEDLSRHVIKQLALAVKHMHSLGVVHRDIKPENLLFEPIEFTRSIKPKLRKSDDPQTKADEGIFTPGVGGGGIGIVKLADFGLSKQIFSKNTKTPCGTVGYTAPEVVKDEHYSMKVDMWGIGCVLYTMLCGFPPFYDEKIDTLTEKISRGEYTFLKPWWDEISAGAKNAVAKLLELEPSKRYDIDQFLDDPWLNTFDCLPKEGESSQKKAGTSERRHPHKKQFQLFQRDSSLLFSPAAVAMRDAFDIGNAVKRTEEDRMGTRGGLGSLAEDEELEDSYSGAQGDEQLEQNMFQLTLDTSTILQRRKKVQENDVGPTIPISATIRE
binds: [7]

— US20030162221A1
